Source: the supplement of paper PMC8728848
This is one part of the list.

Columns and labels:
Test in all cases: glycan array binding signal (z-score within array); higher = stronger binding
Conditions in all cases: glycan notation: IUPAC condensed, linker removed
Gal6S(b1-4)Glc = target: Gal6S(b1-4)Glc
Method in brief: (§1)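 Arrays were curated from the Consortium for Functional Glycomics database, 3228 in total, and kept only where the protein sequence was available. Binding is expressed as a within-array Z-score. This score was averaged across arrays of the same protein sequence at different concentrations or buffers and across linkers, and negative values can be read as non-binding.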

Gal6S(b1-4)Glc6S = target: Gal6S(b1-4)Glc6S
Method in brief: as §1

Gal6S(b1-4)GlcNAc = target: Gal6S(b1-4)GlcNAc
Method in brief: as §1

Gal6S(b1-4)GlcNAc6S = target: Gal6S(b1-4)GlcNAc6S
Method in brief: as §1

GalNAc(a1-3)Gal = target: GalNAc(a1-3)Gal
Method in brief: as §1

GalNAc(a1-3)GalNAc = target: GalNAc(a1-3)GalNAc
Method in brief: as §1

[1] = target: GalNAc(a1-3)GalNAc(b1-3)Gal(a1-4)Gal(b1-4)Glc
Method in brief: as §1

[2] = target: GalNAc(a1-3)GalNAc(b1-3)Gal(a1-4)Gal(b1-4)GlcNAc
Method in brief: as §1

GalNAc(b1-3)Gal = target: GalNAc(b1-3)Gal
Method in brief: as §1

[3] = target: GalNAc(b1-3)Gal(a1-4)Gal(b1-4)GlcNAc
Method in brief: as §1

[4] = target: GalNAc(b1-3)Gal(a1-4)Gal(b1-4)GlcNAc(b1-3)Gal(b1-4)Glc
Method in brief: as §1

[5] = target: GalNAc(b1-3)Gal(a1-6)Gal(b1-4)Glc
Method in brief: as §1

GalNAc(b1-3)GalNAc = target: GalNAc(b1-3)GalNAc
Method in brief: as §1

GalNAc(b1-3)GlcNAc = target: GalNAc(b1-3)GlcNAc
Method in brief: as §1

GalNAc(b1-4)Gal(b1-4)Glc = target: GalNAc(b1-4)Gal(b1-4)Glc
Method in brief: as §1

GalNAc(b1-4)GlcNAc = target: GalNAc(b1-4)GlcNAc
Method in brief: as §1

[6] = target: GalNAc(b1-4)GlcNAc(b1-2)Man
Method in brief: as §1

[7] = target: GalNAc(b1-4)GlcNAc(b1-2)Man(a1-3)[GalNAc(b1-4)GlcNAc(b1-2)Man(a1-6)]Man(b1-4)GlcNAc(b1-4)GlcNAc
Method in brief: as §1

[8] = target: GalNAc(b1-4)GlcNAc(b1-3)GalNAc(b1-4)GlcNAc
Method in brief: as §1

GalNAc(b1-4)GlcNAc6S = target: GalNAc(b1-4)GlcNAc6S
Method in brief: as §1

GalNAc(b1-6)GalNAc = target: GalNAc(b1-6)GalNAc
Method in brief: as §1

GalNAc3S(b1-4)GlcNAc = target: GalNAc3S(b1-4)GlcNAc
Method in brief: as §1

GalNAc3S(b1-4)GlcNAc3S = target: GalNAc3S(b1-4)GlcNAc3S
Method in brief: as §1

[9] = target: GalNAc3S(b1-4)[Fuc(a1-3)]GlcNAc
Method in brief: as §1

GalNAc4S6S(b1-4)GlcNAc = target: GalNAc4S6S(b1-4)GlcNAc
Method in brief: as §1

GalNAc6S(b1-4)GlcNAc = target: GalNAc6S(b1-4)GlcNAc
Method in brief: as §1

Glc(a1-4)Glc = target: Glc(a1-4)Glc
Method in brief: as §1

[10] = target: Glc(a1-4)Glc(a1-4)Glc(a1-4)Glc
Method in brief: as §1

Glc(a1-6)Glc(a1-6)Glc = target: Glc(a1-6)Glc(a1-6)Glc
Method in brief: as §1

[11] = target: Glc(a1-6)Glc(a1-6)Glc(a1-6)Glc
Method in brief: as §1

Glc(b1-4)Glc = target: Glc(b1-4)Glc
Method in brief: as §1

Glc(b1-6)Glc = target: Glc(b1-6)Glc
Method in brief: as §1

GlcA(b1-3)Gal = target: GlcA(b1-3)Gal
Method in brief: as §1

GlcA(b1-3)GlcNAc = target: GlcA(b1-3)GlcNAc
Method in brief: as §1

GlcA(b1-6)Gal = target: GlcA(b1-6)Gal
Method in brief: as §1

[12] = target: GlcA3S(b1-3)Gal(b1-4)GlcNAc(b1-2)Man
Method in brief: as §1

[13] = target: GlcA3S(b1-3)Gal(b1-4)GlcNAc(b1-3)Gal(b1-4)Glc
Method in brief: as §1

B1: SP15308C-bot-338-23-338 (Bacteroides ovatus) (protein)
chain: DEWTDEQFKQLISFKTQPGGWGVTDVHVRYANSAKYTYNLPVLVSGSTDNTDDRLVSFSLRDDTLDILNFEKFGNRPELYFRELPQKYYSFPKELTIPAGQSHALLPIEFSLDGLDDSQKWALPLKVCEDANGTYAVNPRKYYRTAVLRPILFNEFSGRFSGSSLLGTMAGESDIKFSSTEIKLNVVTDSIVFFYAGQRTEDYEDRINYKVFLQFTGDKVDSKKDLYKMKIWAENEKLKFNSYSTPTYKVSSEMDATKTYLKHTYIVISDIDFDFVDYTSVPNYEIEYNMKGGLSVSRDLDTRKPDEDQGSDSKWW
glycan array binding signal (z-score) (Gal6S(b1-4)Glc): -0.267 | glycan array binding signal (z-score) (Gal6S(b1-4)Glc6S): -0.508 | glycan array binding signal (z-score) (Gal6S(b1-4)GlcNAc): -0.017 | glycan array binding signal (z-score) (Gal6S(b1-4)GlcNAc6S): -0.622 | glycan array binding signal (z-score) (GalNAc(a1-3)Gal): -0.157 | glycan array binding signal (z-score) (GalNAc(a1-3)GalNAc): -0.472 | glycan array binding signal (z-score) [1]: -0.652 | glycan array binding signal (z-score) [2]: 0.315 | glycan array binding signal (z-score) (GalNAc(b1-3)Gal): -0.133 | glycan array binding signal (z-score) [3]: 1.16 | glycan array binding signal (z-score) [4]: -0.378 | glycan array binding signal (z-score) [5]: -0.515 | glycan array binding signal (z-score) (GalNAc(b1-3)GalNAc): -0.579 | glycan array binding signal (z-score) (GalNAc(b1-3)GlcNAc): 0.014 | glycan array binding signal (z-score) (GalNAc(b1-4)Gal(b1-4)Glc): 0.663 | glycan array binding signal (z-score) (GalNAc(b1-4)GlcNAc): -0.202 | glycan array binding signal (z-score) [6]: 0.109 | glycan array binding signal (z-score) [7]: 1.03 | glycan array binding signal (z-score) [8]: 0.135 | glycan array binding signal (z-score) (GalNAc(b1-4)GlcNAc6S): -0.131 | glycan array binding signal (z-score) (GalNAc(b1-6)GalNAc): 0.119 | glycan array binding signal (z-score) (GalNAc3S(b1-4)GlcNAc): -0.876 | glycan array binding signal (z-score) (GalNAc3S(b1-4)GlcNAc3S): -0.145 | glycan array binding signal (z-score) [9]: -0.053 | glycan array binding signal (z-score) (GalNAc4S6S(b1-4)GlcNAc): -0.094 | glycan array binding signal (z-score) (GalNAc6S(b1-4)GlcNAc): -0.492 | glycan array binding signal (z-score) (Glc(a1-4)Glc): -0.074 | glycan array binding signal (z-score) [10]: -0.105 | glycan array binding signal (z-score) (Glc(a1-6)Glc(a1-6)Glc): -0.504 | glycan array binding signal (z-score) [11]: -0.322 | glycan array binding signal (z-score) (Glc(b1-4)Glc): -0.227 | glycan array binding signal (z-score) (Glc(b1-6)Glc): 0.141 | glycan array binding signal (z-score) (GlcA(b1-3)Gal): -0.033 | glycan array binding signal (z-score) (GlcA(b1-3)GlcNAc): 1.1 | glycan array binding signal (z-score) (GlcA(b1-6)Gal): -0.162 | glycan array binding signal (z-score) [12]: -0.462 | glycan array binding signal (z-score) [13]: -0.588
